Source: the supplement of paper PMC12823440, “Inhibitors supercharge kinase turnover through native proteolytic circuits” (Nature, 2025)
Where a name gives a salt, the structure may show the parent alone. Some of the results follow. The calls rarely recur for the same compound in another form.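 Kinases, fused to nanoluciferase, were expressed in K562 cells; luminescence was measured every 4 h from 2 to 18 h as percent of control (DMSO = 100%, positive control = 0%). A time point is decreased if signal falls significantly (2 sigma). Hits were called by the authors by a rule that is not shown; the count of time points alone does not decide it.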

By UniProt entry, the sequences of proteins in these tests, tags left out. Where a name states a change or a piece, a line headed by the entry shows the natural chain unless it says otherwise.
UniProt P42680: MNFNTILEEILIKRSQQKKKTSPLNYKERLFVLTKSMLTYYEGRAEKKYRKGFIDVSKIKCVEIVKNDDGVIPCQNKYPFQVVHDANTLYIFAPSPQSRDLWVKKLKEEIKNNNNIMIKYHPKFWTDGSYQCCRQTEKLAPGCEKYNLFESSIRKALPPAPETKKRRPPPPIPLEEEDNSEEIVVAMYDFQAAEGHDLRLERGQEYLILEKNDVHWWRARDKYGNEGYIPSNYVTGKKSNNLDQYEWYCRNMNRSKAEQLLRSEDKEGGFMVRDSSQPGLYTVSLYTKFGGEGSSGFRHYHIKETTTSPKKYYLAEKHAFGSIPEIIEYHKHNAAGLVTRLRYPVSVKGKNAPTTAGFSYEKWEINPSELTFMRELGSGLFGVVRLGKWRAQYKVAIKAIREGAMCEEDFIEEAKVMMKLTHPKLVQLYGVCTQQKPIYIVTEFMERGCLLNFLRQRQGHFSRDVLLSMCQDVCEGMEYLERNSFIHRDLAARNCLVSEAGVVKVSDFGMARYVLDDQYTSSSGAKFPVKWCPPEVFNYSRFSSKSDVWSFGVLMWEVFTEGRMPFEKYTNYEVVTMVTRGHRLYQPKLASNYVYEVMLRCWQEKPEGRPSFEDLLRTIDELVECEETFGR
UniProt Q6PHR2: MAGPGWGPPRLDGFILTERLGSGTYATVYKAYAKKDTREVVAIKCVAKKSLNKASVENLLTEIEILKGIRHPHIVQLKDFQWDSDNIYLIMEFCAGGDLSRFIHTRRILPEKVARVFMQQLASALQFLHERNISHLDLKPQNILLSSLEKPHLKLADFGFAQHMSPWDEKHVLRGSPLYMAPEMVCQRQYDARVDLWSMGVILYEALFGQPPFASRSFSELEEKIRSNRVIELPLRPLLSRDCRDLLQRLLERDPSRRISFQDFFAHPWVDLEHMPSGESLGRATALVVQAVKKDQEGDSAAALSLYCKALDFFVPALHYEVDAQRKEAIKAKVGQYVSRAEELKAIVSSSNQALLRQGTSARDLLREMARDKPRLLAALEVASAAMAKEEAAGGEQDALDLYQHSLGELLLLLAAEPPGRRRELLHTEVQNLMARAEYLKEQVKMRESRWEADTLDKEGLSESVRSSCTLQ
UniProt P07947, whole entry, looked up: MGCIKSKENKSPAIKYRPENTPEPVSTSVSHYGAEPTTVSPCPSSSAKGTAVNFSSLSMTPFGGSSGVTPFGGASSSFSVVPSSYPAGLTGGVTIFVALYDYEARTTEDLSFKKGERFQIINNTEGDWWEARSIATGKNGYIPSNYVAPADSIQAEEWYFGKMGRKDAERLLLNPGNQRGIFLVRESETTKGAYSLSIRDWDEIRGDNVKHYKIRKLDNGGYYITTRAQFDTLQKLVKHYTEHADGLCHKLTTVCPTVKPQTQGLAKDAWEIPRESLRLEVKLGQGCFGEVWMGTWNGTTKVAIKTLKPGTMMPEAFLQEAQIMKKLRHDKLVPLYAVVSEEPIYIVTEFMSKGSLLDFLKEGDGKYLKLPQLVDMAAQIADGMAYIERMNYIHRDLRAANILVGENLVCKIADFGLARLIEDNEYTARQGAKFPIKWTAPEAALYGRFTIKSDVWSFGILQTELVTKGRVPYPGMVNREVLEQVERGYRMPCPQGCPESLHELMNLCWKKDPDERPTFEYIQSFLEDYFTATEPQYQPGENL
UniProt P00519, whole entry: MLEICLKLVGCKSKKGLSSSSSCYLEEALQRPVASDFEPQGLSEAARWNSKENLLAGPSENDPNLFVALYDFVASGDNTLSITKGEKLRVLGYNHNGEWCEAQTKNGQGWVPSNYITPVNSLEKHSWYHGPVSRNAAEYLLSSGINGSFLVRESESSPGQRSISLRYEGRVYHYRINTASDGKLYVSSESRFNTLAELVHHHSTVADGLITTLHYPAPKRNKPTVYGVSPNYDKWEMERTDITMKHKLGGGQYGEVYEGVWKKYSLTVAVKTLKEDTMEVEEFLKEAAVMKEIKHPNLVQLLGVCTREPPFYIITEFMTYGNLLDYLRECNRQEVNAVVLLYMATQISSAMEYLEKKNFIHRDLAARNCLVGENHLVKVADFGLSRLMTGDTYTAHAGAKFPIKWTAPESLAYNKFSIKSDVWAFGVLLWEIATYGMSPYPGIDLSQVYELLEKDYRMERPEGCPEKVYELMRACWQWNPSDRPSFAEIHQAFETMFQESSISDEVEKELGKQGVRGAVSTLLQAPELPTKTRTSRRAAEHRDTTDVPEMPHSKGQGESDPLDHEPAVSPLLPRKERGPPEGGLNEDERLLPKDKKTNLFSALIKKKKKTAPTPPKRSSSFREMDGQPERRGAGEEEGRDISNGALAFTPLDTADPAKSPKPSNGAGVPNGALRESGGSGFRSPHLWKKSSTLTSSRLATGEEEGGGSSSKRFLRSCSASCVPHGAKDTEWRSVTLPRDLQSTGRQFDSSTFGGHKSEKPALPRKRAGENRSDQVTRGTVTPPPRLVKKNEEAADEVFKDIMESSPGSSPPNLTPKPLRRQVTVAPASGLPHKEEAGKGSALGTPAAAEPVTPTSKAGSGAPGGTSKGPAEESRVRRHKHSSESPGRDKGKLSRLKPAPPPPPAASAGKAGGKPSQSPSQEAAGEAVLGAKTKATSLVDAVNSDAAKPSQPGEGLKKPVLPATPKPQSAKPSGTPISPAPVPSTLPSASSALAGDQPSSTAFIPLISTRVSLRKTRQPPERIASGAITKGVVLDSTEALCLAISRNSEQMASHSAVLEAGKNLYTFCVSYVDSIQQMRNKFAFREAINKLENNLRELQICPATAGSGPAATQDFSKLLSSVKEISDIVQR
UniProt P31749: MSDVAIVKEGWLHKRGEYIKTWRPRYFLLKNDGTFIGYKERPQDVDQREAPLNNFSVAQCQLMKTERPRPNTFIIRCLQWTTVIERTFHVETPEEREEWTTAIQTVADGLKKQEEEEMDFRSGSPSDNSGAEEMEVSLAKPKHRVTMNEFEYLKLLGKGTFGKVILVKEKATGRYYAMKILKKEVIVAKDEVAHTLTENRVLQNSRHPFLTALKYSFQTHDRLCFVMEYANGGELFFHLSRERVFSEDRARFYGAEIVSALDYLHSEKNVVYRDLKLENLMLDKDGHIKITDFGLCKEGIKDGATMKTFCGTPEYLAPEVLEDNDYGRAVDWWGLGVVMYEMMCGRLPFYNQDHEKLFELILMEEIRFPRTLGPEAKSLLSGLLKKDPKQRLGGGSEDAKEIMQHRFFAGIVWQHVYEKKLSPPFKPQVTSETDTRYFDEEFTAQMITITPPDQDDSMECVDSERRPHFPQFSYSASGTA
UniProt P10398: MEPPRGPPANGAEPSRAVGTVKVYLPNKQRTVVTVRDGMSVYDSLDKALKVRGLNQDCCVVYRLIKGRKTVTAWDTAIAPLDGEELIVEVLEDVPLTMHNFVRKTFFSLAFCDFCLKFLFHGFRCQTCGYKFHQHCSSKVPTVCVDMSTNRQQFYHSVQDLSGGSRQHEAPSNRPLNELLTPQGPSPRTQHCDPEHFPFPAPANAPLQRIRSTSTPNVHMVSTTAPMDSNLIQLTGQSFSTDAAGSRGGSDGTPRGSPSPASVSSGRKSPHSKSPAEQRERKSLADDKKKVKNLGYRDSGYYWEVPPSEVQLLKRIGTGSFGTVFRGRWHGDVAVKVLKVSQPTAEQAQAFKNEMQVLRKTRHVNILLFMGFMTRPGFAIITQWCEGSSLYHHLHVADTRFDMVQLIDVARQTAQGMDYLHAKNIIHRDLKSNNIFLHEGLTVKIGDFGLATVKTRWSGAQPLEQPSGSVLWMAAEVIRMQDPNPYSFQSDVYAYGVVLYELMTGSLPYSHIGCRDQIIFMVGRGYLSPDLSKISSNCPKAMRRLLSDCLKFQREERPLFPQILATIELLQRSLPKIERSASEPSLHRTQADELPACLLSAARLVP
UniProt P51451: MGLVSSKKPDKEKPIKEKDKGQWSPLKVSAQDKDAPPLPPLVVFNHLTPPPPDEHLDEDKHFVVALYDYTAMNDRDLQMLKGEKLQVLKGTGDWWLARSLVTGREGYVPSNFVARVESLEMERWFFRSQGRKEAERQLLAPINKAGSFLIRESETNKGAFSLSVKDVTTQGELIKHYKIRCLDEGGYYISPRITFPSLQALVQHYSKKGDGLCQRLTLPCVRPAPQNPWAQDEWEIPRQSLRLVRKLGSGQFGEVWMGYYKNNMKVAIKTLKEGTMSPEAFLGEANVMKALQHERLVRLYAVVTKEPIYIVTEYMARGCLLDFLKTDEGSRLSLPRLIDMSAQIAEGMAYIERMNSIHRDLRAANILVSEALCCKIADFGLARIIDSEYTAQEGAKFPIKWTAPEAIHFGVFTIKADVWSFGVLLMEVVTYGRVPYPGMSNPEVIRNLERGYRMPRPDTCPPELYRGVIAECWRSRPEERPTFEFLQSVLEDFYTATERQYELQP
UniProt P51813: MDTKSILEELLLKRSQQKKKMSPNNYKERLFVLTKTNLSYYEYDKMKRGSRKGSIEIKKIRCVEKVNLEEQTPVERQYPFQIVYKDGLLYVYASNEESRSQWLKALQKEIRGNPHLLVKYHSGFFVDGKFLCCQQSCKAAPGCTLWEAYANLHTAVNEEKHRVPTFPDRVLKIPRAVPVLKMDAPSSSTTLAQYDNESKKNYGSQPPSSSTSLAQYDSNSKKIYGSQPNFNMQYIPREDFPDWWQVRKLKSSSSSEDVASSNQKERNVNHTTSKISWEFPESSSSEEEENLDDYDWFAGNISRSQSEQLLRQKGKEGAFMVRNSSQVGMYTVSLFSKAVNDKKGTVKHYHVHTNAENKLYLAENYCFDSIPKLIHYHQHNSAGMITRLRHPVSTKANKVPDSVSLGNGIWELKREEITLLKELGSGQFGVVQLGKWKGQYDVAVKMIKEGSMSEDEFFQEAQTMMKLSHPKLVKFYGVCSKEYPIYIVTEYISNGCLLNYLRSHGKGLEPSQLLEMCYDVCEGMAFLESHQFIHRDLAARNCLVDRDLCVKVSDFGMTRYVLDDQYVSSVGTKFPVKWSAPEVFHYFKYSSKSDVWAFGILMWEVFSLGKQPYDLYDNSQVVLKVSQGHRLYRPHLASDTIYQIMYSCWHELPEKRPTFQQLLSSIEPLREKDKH
UniProt P15056, whole entry, looked up: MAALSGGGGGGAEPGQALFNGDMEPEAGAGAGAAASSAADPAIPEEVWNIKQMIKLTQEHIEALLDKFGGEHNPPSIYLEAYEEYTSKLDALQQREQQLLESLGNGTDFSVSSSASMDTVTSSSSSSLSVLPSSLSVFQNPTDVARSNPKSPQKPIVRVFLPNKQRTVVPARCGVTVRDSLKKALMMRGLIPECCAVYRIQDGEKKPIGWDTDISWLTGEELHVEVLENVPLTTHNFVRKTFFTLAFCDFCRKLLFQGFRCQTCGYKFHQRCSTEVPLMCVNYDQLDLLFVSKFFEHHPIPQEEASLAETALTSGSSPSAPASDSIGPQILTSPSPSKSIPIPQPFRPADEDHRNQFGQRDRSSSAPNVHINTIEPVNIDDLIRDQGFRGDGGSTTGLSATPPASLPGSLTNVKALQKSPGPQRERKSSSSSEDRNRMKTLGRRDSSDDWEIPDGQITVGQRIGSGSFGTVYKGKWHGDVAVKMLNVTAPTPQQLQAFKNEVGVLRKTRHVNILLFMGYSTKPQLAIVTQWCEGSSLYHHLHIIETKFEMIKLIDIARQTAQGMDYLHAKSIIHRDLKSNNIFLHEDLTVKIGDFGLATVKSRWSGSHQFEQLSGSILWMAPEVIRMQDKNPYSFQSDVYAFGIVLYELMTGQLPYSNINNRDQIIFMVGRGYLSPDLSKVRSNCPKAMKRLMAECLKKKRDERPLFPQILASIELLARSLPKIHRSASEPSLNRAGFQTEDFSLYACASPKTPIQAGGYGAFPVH
UniProt Q06187: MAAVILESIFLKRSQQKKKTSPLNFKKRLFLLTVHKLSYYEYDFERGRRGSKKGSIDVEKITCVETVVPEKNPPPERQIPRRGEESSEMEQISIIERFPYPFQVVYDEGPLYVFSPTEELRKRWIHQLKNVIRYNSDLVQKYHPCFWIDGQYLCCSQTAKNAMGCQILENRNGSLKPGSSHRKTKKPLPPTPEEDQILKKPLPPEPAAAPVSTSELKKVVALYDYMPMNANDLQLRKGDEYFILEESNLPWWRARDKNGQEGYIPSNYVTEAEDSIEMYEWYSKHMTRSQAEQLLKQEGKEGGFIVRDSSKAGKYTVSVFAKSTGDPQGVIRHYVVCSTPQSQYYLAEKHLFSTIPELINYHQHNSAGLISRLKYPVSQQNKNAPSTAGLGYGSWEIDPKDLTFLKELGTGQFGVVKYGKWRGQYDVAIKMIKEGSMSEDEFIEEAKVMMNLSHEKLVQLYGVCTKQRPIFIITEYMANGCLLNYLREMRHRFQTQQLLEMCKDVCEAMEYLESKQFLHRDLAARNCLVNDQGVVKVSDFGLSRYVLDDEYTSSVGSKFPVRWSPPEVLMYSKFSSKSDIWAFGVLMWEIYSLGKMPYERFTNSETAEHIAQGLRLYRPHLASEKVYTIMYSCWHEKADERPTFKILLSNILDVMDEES

Experiments:
Details in all cases: K562; 2-18 h
[1] = target: STK38 (UniProt Q15208); experiment: kinase-Nluc reporter destabilization hit call (1 = scored as downregulated) (binary); higher = compound decreases kinase abundance
[2] = target: TEC (UniProt P42680); experiment: as above
[3] = target: TYK2 (UniProt P29597); experiment: as above
[4] = target: ULK3 (UniProt Q6PHR2); experiment: as above
[5] = target: YES1 (UniProt P07947); experiment: as above
[6] = target: ZAP70 (UniProt P43403); experiment: as above
[7] = target: ABL1 (UniProt P00519); experiment: number of time points (of 5) at which kinase-Nluc abundance scored as decreased, DMSO-normalised (count); higher = more persistent destabilization
[8] = target: AKT1 (UniProt P31749); experiment: as above
[9] = target: ALK (UniProt Q9UM73); experiment: as above
[10] = target: ARAF (UniProt P10398); experiment: as above
[11] = target: AURKA (UniProt O14965); experiment: as above
[12] = target: AURKB (UniProt Q96GD4); experiment: as above
[13] = target: AURKC (UniProt Q9UQB9); experiment: as above
[14] = target: BLK (UniProt P51451); experiment: as above
[15] = target: BMX (UniProt P51813); experiment: as above
[16] = target: BRAF (UniProt P15056); experiment: as above
[17] = test system: BRAF_V600E; experiment: as above
[18] = target: BTK (UniProt Q06187); experiment: as above
[19] = target: ZAK (UniProt Q9NYL2); experiment: kinase-Nluc reporter destabilization hit call (1 = scored as downregulated) (binary); higher = compound decreases kinase abundance
[20] = target: SYK (UniProt P43405); experiment: as above

| SMILES | kinase-Nluc reporter destabilization hit call [1] | kinase-Nluc reporter destabilization hit call [2] | kinase-Nluc reporter destabilization hit call [3] | kinase-Nluc reporter destabilization hit call [4] | kinase-Nluc reporter destabilization hit call [5] | kinase-Nluc reporter destabilization hit call [6] | number of time points [7] | number of time points [8] | number of time points [9] | number of time points [10] | number of time points [11] | number of time points [12] | number of time points [13] | number of time points [14] | number of time points [15] | number of time points [16] | number of time points [17] | number of time points [18] | kinase-Nluc reporter destabilization hit call [19] | kinase-Nluc reporter destabilization hit call [20] |
| --- | --- | --- | --- | --- | --- | --- | --- | --- | --- | --- | --- | --- | --- | --- | --- | --- | --- | --- | --- | --- |
| COc1ccc2c(NC(=O)Nc3cccc(C(F)(F)F)n3)ccnc2c1 (10 µM) | inactive: 0 | inactive: 0 | inactive: 0 | inactive: 0 | inactive: 0 | inactive: 0 | 0 | 0 | 0 | 0 | 0 | 0 | 0 | 0 | 0 | 0 | 0 | 0 | – | – |
| COc1cc(Nc2ncc3c(n2)-c2ccc(Cl)cc2C(c2c(F)cccc2OC)=NC3)ccc1C(=O)O [Alisertib] (2.5 µM) | inactive: 0 | inactive: 0 | inactive: 0 | inactive: 0 | inactive: 0 | inactive: 0 | 0 | 0 | 0 | 0 | 0 | 0 | 0 | 0 | 0 | 0 | 0 | 0 | – | – |
| C[C@]1(O)C[C@@H](c2nc(-c3ccc4ccc(-c5ccccc5)nc4c3)c3c(N)nccn32)C1 [Linsitinib] (2.5 µM) | inactive: 0 | inactive: 0 | inactive: 0 | inactive: 0 | inactive: 0 | inactive: 0 | 0 | 0 | 0 | 0 | 0 | 0 | 0 | 0 | 0 | 0 | 0 | 0 | inactive: 0 | – |
| COCc1c(-c2ccc(NC(=O)Nc3cc(C(F)(F)F)ccc3F)c(F)c2)c2c(N)ncnn2c1CN1CCOCC1 (2.5 µM) | inactive: 0 | inactive: 0 | inactive: 0 | inactive: 0 | inactive: 0 | inactive: 0 | 0 | 0 | 0 | 0 | 0 | 0 | 0 | 0 | 1 | – | 0 | 0 | inactive: 0 | inactive: 0 |
| O=C(c1ccc(-c2ccc(Cl)cc2)o1)N(Cc1ccccn1)c1ccc(N2CCNCC2)cc1 [MK2-IN-1 (hydrochloride)] (10 µM) | inactive: 0 | inactive: 0 | inactive: 0 | inactive: 0 | – | inactive: 0 | 0 | 0 | 0 | 0 | 1 | 0 | 0 | 0 | 0 | 0 | 0 | 0 | inactive: 0 | inactive: 0 |
| Cc1cc(C)c(/C=C2\C(=O)Nc3ccccc32)[nH]1 [Semaxinib] (10 µM) | inactive: 0 | inactive: 0 | inactive: 0 | inactive: 0 | inactive: 0 | inactive: 0 | 0 | 0 | 0 | 0 | 0 | 4 | 0 | 1 | 0 | 0 | – | – | – | – |
| CC(C)c1ccc2oc3nc(N)c(C(=O)O)cc3c(=O)c2c1 [Amlexanox] (10 µM) | inactive: 0 | inactive: 0 | inactive: 0 | inactive: 0 | inactive: 0 | inactive: 0 | 0 | 0 | 0 | 0 | 0 | 0 | 0 | 0 | 0 | 0 | – | 0 | inactive: 0 | inactive: 0 |
| Cc1c(Cn2c(C)nc3c(C(=O)O)cc(N4CCOCC4)cc32)cccc1C(F)(F)F (10 µM) | inactive: 0 | inactive: 0 | inactive: 0 | inactive: 0 | inactive: 0 | – | 0 | 0 | 0 | 0 | 0 | 0 | 0 | 0 | 0 | 0 | 0 | 0 | – | inactive: 0 |
| COC(=O)c1ccc2c(C(=Nc3ccc(N(C)C(=O)CN4CCN(C)CC4)cc3)c3ccccc3)c(O)[nH]c2c1 [Nintedanib] (2.5 µM) | inactive: 0 | inactive: 0 | inactive: 0 | inactive: 0 | inactive: 0 | inactive: 0 | 0 | 0 | 0 | 0 | 0 | 0 | 0 | 0 | 0 | 0 | – | 0 | inactive: 0 | inactive: 0 |
| Cc1cccc([C@@H](CO)NC(=O)[C@@H](C)N2Cc3ccc(-c4nc(NC5CCOCC5)ncc4Cl)cc3C2=O)c1 [ERK1/2 inhibitor 1] (10 µM) | inactive: 0 | inactive: 0 | inactive: 0 | inactive: 0 | inactive: 0 | inactive: 0 | 0 | 0 | 0 | 0 | 1 | 0 | 0 | 0 | 0 | 0 | – | 0 | inactive: 0 | inactive: 0 |
| Cc1ccc2c(Nc3ccc(Cl)cc3)nccc2c1Nc1ncccc1-c1ncnc2nc[nH]c12 [Raf inhibitor 1] (2.5 µM) | inactive: 0 | inactive: 0 | inactive: 0 | inactive: 0 | inactive: 0 | inactive: 0 | 0 | 0 | 0 | 0 | 0 | 0 | 0 | 0 | 0 | – | 0 | 0 | inactive: 0 | inactive: 0 |
| CCn1c(=O)c2cc(C(N)=O)c(N)nc2n(C2CC2)c1=O (10 µM) | inactive: 0 | inactive: 0 | inactive: 0 | inactive: 0 | inactive: 0 | inactive: 0 | 0 | 0 | 0 | 0 | 0 | 0 | 0 | 0 | 0 | 0 | – | 0 | inactive: 0 | inactive: 0 |
| NC(=O)c1ccc2nc(-c3ccc(Oc4ccc(Cl)cc4)cc3)[nH]c2c1 (10 µM) | inactive: 0 | inactive: 0 | inactive: 0 | inactive: 0 | inactive: 0 | inactive: 0 | 0 | 0 | 0 | 0 | 0 | 0 | 0 | 0 | 0 | 0 | – | 0 | inactive: 0 | inactive: 0 |
| NC(=O)c1ccc(-c2nc(-c3ccccn3)c(-c3ccc4c(c3)OCO4)[nH]2)cc1 (10 µM) | inactive: 0 | inactive: 0 | inactive: 0 | inactive: 0 | inactive: 0 | inactive: 0 | 0 | 0 | 0 | 0 | 0 | 0 | 0 | 0 | 0 | – | 0 | 0 | inactive: 0 | inactive: 0 |
| O=C1c2ccccc2-c2n[nH]c3cccc1c23 (10 µM) | inactive: 0 | inactive: 0 | inactive: 0 | inactive: 0 | inactive: 0 | inactive: 0 | 0 | 0 | 0 | 0 | 0 | 0 | 0 | 0 | 0 | 0 | 0 | 0 | inactive: 0 | – |
| CN(c1ncccc1CNc1nc(Nc2ccc3c(c2)CC(=O)N3)ncc1C(F)(F)F)S(C)(=O)=O (2.5 µM) | inactive: 0 | inactive: 0 | inactive: 0 | inactive: 0 | inactive: 0 | inactive: 0 | 0 | 0 | 2 | 0 | 1 | 0 | 0 | 1 | 0 | 0 | 0 | 0 | – | inactive: 0 |
| CCOc1ccn(-c2ccc(F)cc2)c(=O)c1C(=O)Nc1ccc(Oc2ccnc(N)c2Cl)c(F)c1 (10 µM) | inactive: 0 | inactive: 0 | inactive: 0 | inactive: 0 | inactive: 0 | inactive: 0 | 2 | 0 | 1 | 0 | 1 | 0 | 0 | 0 | 2 | – | 2 | – | inactive: 0 | inactive: 0 |
| CC#CC(=O)N[C@H]1CCCN(c2c(F)cc(C(N)=O)c3[nH]c(C)c(C)c23)C1 [Branebrutinib] (10 µM) | inactive: 0 | inactive: 0 | inactive: 0 | inactive: 0 | inactive: 0 | inactive: 0 | 0 | 0 | 0 | 0 | 0 | 0 | 0 | 0 | – | 0 | 0 | 0 | inactive: 0 | inactive: 0 |
| Cn1nc(C(C)(C)C)cc1NC(=O)Nc1ccc(Oc2ccncc2)cc1 (10 µM) | inactive: 0 | inactive: 0 | inactive: 0 | inactive: 0 | inactive: 0 | inactive: 0 | 0 | 0 | 0 | 0 | 0 | 0 | 0 | 0 | 0 | – | 2 | 0 | inactive: 0 | inactive: 0 |
| Cc1ccc(NC(=O)c2cccc(N(C)C)c2)cc1NC(=O)c1ccc(O)cc1 (10 µM) | inactive: 0 | inactive: 0 | inactive: 0 | inactive: 0 | inactive: 0 | inactive: 0 | 0 | 0 | 0 | 0 | 0 | 0 | 0 | 0 | 0 | – | 0 | 0 | inactive: 0 | inactive: 0 |

Given as tab-separated lines: part of the list above
SMILES	kinase-Nluc reporter destabilization hit call [1]	kinase-Nluc reporter destabilization hit call [2]	kinase-Nluc reporter destabilization hit call [3]	kinase-Nluc reporter destabilization hit call [4]	kinase-Nluc reporter destabilization hit call [5]	kinase-Nluc reporter destabilization hit call [6]	number of time points [7]	number of time points [8]	number of time points [9]	number of time points [10]	number of time points [11]	number of time points [12]	number of time points [13]	number of time points [14]	number of time points [15]	number of time points [16]	number of time points [17]	number of time points [18]	kinase-Nluc reporter destabilization hit call [19]	kinase-Nluc reporter destabilization hit call [20]
Cc1ccc2c(Nc3ccc(Cl)cc3)nccc2c1Nc1ncccc1-c1ncnc2nc[nH]c12 [Raf inhibitor 1] (2.5 µM)	inactive: 0	inactive: 0	inactive: 0	inactive: 0	inactive: 0	inactive: 0	0	0	0	0	0	0	0	0	0	–	0	0	inactive: 0	inactive: 0
CCn1c(=O)c2cc(C(N)=O)c(N)nc2n(C2CC2)c1=O (10 µM)	inactive: 0	inactive: 0	inactive: 0	inactive: 0	inactive: 0	inactive: 0	0	0	0	0	0	0	0	0	0	0	–	0	inactive: 0	inactive: 0
